In PubChem BioAssay AID493014 (National Center for Advancing Translational Sciences (NCATS), 2011):
The other results are listed elsewhere or left out. Further columns of the screen follow, without active or inactive calls. Most of these compounds were active or inconclusive in the main read-out, so they are no random draw. The note in brackets gives the kind of curve behind each potency; many fits are weak.

Test: qHTS Assay to Find Inhibitors of Chronic Active B-Cell Receptor Signaling
Details: ABC-DLBCL IkBa-CBG/CBR reporter, luminescence ratio (green luciferase fused to IkBa over red control in TMD8 lymphoma cells), 4 h
Procedure, shortened: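 Cell line TMD8 (human ABC DLBCL), stably expressing tet-inducible CBG68-IkBa fusion and CBR; IMDM/0.5% FBS; cpd up to 46 uM; dox induction, 4 h, 37C/5% CO2; dual luminescence; green/red ratio; MG132 control.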

[1] = measured here: CBR red luminescence, cell number
[2] = measured here: IkBa-CBG green luminescence

| Structure (SMILES) | AC50 [1] | AC50 [2] |
| --- | --- | --- |
| COC(=O)c1ccc(NS(=O)(=O)c2cc(C)ccc2OC)cc1 | 0.0058 µM [falling, full curve, poor fit] |  |
| CN1CCN(C(=S)SCC(=O)Nc2nc(-c3ccccc3)c(-c3ccccc3)o2)CC1 | 1.46 µM [falling, full curve] |  |
| CN1C(=O)C2C(c3ccc(N(C)C)cc3)=NN(Cc3ccccc3)C2C1=O (stereo unspecified) | 11.2 µM [rising, partial curve, poor fit] |  |
| CSCC[C@H](NC(=O)NCCc1ccc(F)cc1)C(=O)O | 7.08 µM [rising, partial curve, poor fit] |  |
| CCOC(=O)c1nc(Nc2ccc(C(=O)OC)cc2)c2ccccc2n1 | 2.82 µM [falling, full curve] |  |
| Cc1nc(NC(=S)NC(=O)c2cncc(Br)c2)ccc1Br | 6.31 µM [rising, partial curve, poor fit] |  |
| CC(=O)Nc1ccc(NC(=O)COc2ccccc2C(=O)Nc2cccc(Cl)c2Cl)cc1 | 5.17 µM [rising, partial curve] |  |
| CC(C)OCCCNC(=O)CCN1C(=O)COc2ccccc21 | 3.66 µM [rising, partial curve] |  |
| Cc1ccc(C(=O)Nc2cccc(NC(=O)c3cccs3)c2)c(C)c1 | 5.62 µM [falling, partial curve] |  |
| COc1cc(NS(=O)(=O)c2ccc(C)cc2)c2ncccc2c1 | 4.11 µM [falling, single point] | 5.8 µM [falling, single point] |
| Cc1ccc(/C=N/NC(=O)c2ccc(OC3CCCC3)cc2)o1 | 35.5 µM [falling, single point] |  |
| N#C/C=C(/N)c1ccc(Br)cc1 | 16.4 µM [falling, partial curve, poor fit] | 10.3 µM [rising, partial curve, poor fit] |
| O=C(Nc1ccc(Oc2cccnc2)cc1)C1CCN(Cc2cc(Cl)ccc2O)CC1 | 35.5 µM [falling, single point] |  |
| Nc1nc(Nc2ccccc2Cl)cc(=O)[nH]1 | 35.5 µM [falling, partial curve, poor fit] |  |
| COCCNC(=O)c1cccc(Nc2nc(-c3ccccc3)c3cc(Cl)ccc3n2)c1 | 4.61 µM [falling, single point] |  |
| Cc1ccsc1C(=O)NNC(=O)c1csc(N2CCOCC2)n1 | 6.51 µM [falling, single point] |  |
| CC1(C)OC(=O)N(c2ccccc2)C12C=Cc1cc(Br)ccc1O2 (stereo unspecified) | 29.1 µM [falling, single point] |  |
| Cc1ccsc1CNCc1cc(Cl)ccc1O | 2.06 µM [rising, partial curve, poor fit] |  |
| CC1CCCC(NC(=O)c2cc(S(=O)(=O)N3CCCCC3)ccc2Cl)C1C (stereo unspecified) | 16.4 µM [falling, single point] |  |
| CCCC[C@]12Cc3cc(C#N)ccc3C(O1)c1c(cc(C)n(Cc3ccccc3)c1=O)O2 | 1.12 µM [falling, partial curve, poor fit] |  |
| COc1ccc(C(=O)NC(=S)NNC(=O)c2ccc(O)cc2)cc1[N+](=O)[O-] | 0.251 µM [falling, full curve] |  |

| Structure (SMILES) | AC50 [1] | AC50 [2] |
| --- | --- | --- |
| CN(CC(=O)Nc1ccc(Cl)cc1)CC(=O)Nc1ccc(F)c(F)c1F | 9.2 µM [falling, partial curve, poor fit] |  |
| COc1cccc2cc(-c3nc(-c4cccs4)cs3)c(=O)oc12 | 6.31 µM [falling, partial curve, poor fit] |  |
| Cc1ccccc1N=C1c2ccccc2C(=O)C1[N+](=O)[O-] (stereo unspecified) | 20 µM [falling, single point] |  |
| C/C(=N\NS(=O)(=O)c1ccc(C)c([N+](=O)[O-])c1)c1cc2ccccc2o1 | 16.4 µM [falling, partial curve, poor fit] |  |
| O=C1CC[C@H](N2C(=O)c3ccccc3C2=O)C(=O)N1 | 25.9 µM [rising, partial curve, poor fit] |  |
| Cc1cc2ccccc2c(=O)n1CC(=O)NCC(=O)N1CCCC(C)C1 (stereo unspecified) | 29.1 µM [rising, single point] |  |
| CCc1ccc(NC(=O)CN2C(=O)C(=O)N(Cc3ccccc3)C2=O)cc1 | 15.8 µM [rising, partial curve, poor fit] |  |
| Cc1noc(C)c1COc1cccc(C(=O)NCCc2c[nH]c3ccccc23)c1 | 3.55 µM [falling, full curve] |  |
| O=C(Nc1ccc(F)c(Cl)c1)c1cc(-c2ccco2)on1 | 7.94 µM [falling, partial curve] |  |
| Cc1nsc(Nc2ccc([N+](=O)[O-])cc2)c1C#N | 10 µM [rising, partial curve, poor fit] |  |
| COc1ccccc1C(=O)Nc1ccc2c(c1)OCCO2 | 35.5 µM [falling, single point] |  |
| COc1ccc2[nH]c(C)c(C(=O)CN3CCN(C(=O)c4ccco4)CC3)c2c1 | 15.8 µM [rising, single point] |  |
| O=c1[nH]c2cc3c(cc2cc1CN(CCO)S(=O)(=O)c1ccccc1)OCCO3 | 25.1 µM [rising, single point] |  |
| Cc1noc(C)c1NC(=O)N(C)C[C@H]1Oc2ccc(NC(=O)Nc3ccc4c(c3)OCO4)cc2C(=O)N([C@H](C)CO)C[C@@H]1C | 0.82 µM [rising, full curve, poor fit] |  |
| O=C(Cc1ccccc1)Nc1nnc(SCC(=O)NC2CCCC2)s1 | 20 µM [rising, partial curve, poor fit] |  |
| Cc1nc(SCC(=O)NCc2ccco2)c2c(C)c(C)sc2n1 | 0.58 µM [falling, partial curve, poor fit] |  |
| Cc1cc(C2=NNC(=NCc3ccccc3)SC2)c(C)n1-c1c(C)n(C)n(-c2ccccc2)c1=O | 23.1 µM [rising, single point] |  |
| CC(C)(C)c1ccc(C(=O)Nc2sc3c(c2C(=O)O)CCC3)cc1 | 0.282 µM [rising, full curve, poor fit] |  |
| O=C(Nc1nnc(-c2ccccc2F)s1)c1cccnc1 | 1.26 µM [falling, full curve] |  |
| COc1ccc(NC(=S)NCc2cccs2)cc1 | 20 µM [falling, single point] |  |
| COc1ccc(-c2csc(N(CCc3ccccc3)C(=O)COc3ccccc3)n2)cc1 | 7.08 µM [rising, full curve] |  |

Look-ups from the entries so far:
Value of COc1ccccc1C(=O)Nc1ccc2c(c1)OCCO2 under AC50 [1]: 35.5 µM [falling, single point]
Value of Cc1ccc(/C=N/NC(=O)c2ccc(OC3CCCC3)cc2)o1 under AC50 [1]: 35.5 µM [falling, single point]

Remaining list, next part:

| Structure (SMILES) | AC50 [1] | AC50 [2] |
| --- | --- | --- |
| O=C(c1cc(COc2c(F)cccc2F)on1)N1CCc2ccccc2C1 | 0.355 µM [rising, full curve, poor fit] |  |
| COc1ccc(CC(=O)N2CCN=C2SCc2cccc([N+](=O)[O-])c2)cc1 | 11.2 µM [falling, partial curve] |  |
| FC(F)Oc1ccccc1NC(=S)NCc1ccco1 | 1.3 µM [rising, partial curve, poor fit] |  |
| Cc1nc2scc(-c3ccco3)c2c(=O)n1/N=C/N(C)C | 23.1 µM [falling, partial curve, poor fit] |  |
| O=C(Nc1ccccc1C(=O)NC1CCCC1)NC1CCCC1 | 16.4 µM [rising, single point] |  |
| CC(C)C(=O)NNC(=O)CSc1ncnc2c1cnn2-c1ccccc1Cl | 4.47 µM [falling, partial curve] |  |
| Cc1ccc(C(=O)NC(=S)Nc2ccc3c(c2)OCCO3)c(C)c1 | 35.5 µM [falling, single point] |  |
| CCc1cc(C(=O)NNC(=S)NC2CCCCC2)cs1 | 0.398 µM [falling, full curve, poor fit] |  |
| COc1ccccc1N(CC(=O)NC1CCCCC1)C(=O)CCC(=O)Nc1nccs1 | 1.58 µM [falling, full curve, poor fit] |  |
| CCOc1ccc2nc(NC(=O)c3ccc(OC)c(S(=O)(=O)N4CCOCC4)c3)sc2c1 | 29.1 µM [falling, single point] | 0.517 µM [falling, full curve, poor fit] |
| O=C(CCCN1C(=O)/C(=C/c2cccs2)SC1=S)Nc1ccc(O)c(C(=O)O)c1 | 10 µM [falling, partial curve, poor fit] |  |
| N#Cc1ccccc1NC(=O)C(=O)NCCc1csc(-c2ccc(F)cc2)n1 | 23.1 µM [rising, single point] |  |
| CCC1=Nc2cc(C(=O)NCc3ccco3)ccc2Sc2ccc(Cl)cc21 | 6.51 µM [rising, full curve] | 5.17 µM [falling, full curve] |
| O=C(O)c1cc(Sc2ccc(Br)cc2)nc2ccccc12 | 22.4 µM [falling, single point] |  |
| COc1cc(CC(=O)Nc2ccc(Cl)c(C(F)(F)F)c2)cc(OC)c1OC | 29.1 µM [falling, single point] |  |
| COc1ccc(CC(=O)Nc2nc(-c3ccc(OC)c(OC)c3)cs2)cc1OC | 22.4 µM [falling, single point] |  |
| COc1ccc(OC)c(NC(=O)CN(C)S(=O)(=O)c2ccc3nc(C)sc3c2)c1 | 2.06 µM [rising, partial curve] |  |
| CCOC(=O)N1CCC(N2C(=O)c3ccccc3C2Nc2cc(C(=O)OC)cc(C(=O)OC)c2)CC1 (stereo unspecified) | 29.1 µM [falling, single point] |  |
| Cc1ccccc1C(=O)Nc1ccccc1C(=O)NCc1ccccc1 | 3.55 µM [falling, partial curve, poor fit] |  |
| CCOC(=O)c1c(C)oc2c1c(CN1CCN(CCO)CC1)c(O)c1ccccc12 | 35.5 µM [falling, single point] |  |
